# PubChem BioAssay AID1224826 | NIAID, 2016
# Screen: 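Knock-downs that raise or lower Tnf reporter signal after endotoxin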 (primary screen)
# Cell system: RAW264.7 G9 macrophages from mouse bearing reporters for p65 (GFP) and the Tnf promoter (mCherry)
# Reagents: siRNA pool against mouse genes, 100 nM
# Timing: 16 h of LPS stimulation, after 2 days of siRNA transfection
# Treatment: bacterial lipopolysaccharide (Salmonella minnesota R595), 10 ng/ml
# Read-out: 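Imaged Tnf reporter mCherry in nuclei, minus background, normalised per plate to the median and expressed as robust z-scores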
# Scale: Tnf reporter robust z-score: higher = stronger Tnf promoter reporter signal after LPS
# Hit rule: 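a well counts as active at a score of -1.3 or below (Tlr4 knock-down control median) or above 3 (raised signal); controls and wells holding fewer than 50 cells are excluded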
# Meaning of the calls: active = Tnf reporter clearly lowered or raised; inactive = no clear change in Tnf reporter
# In all, the deposit lists about 17,000 reagents; below is a part drawn at random. Of all reagents, about 1,110 (6.6%) got an active call. 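Active means lowered or raised reporter signal; replicate intensities are raw and not normalised per plate.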 Entries without a mark were called inactive. Not all columns of the deposit are shown. Reagent sequences are not shown.
target,PubChem SID,Tnf reporter robust z-score,fewer than 50 cells in well
Zfp27,SID315470107,-0.42,enough cells in well
Mtif2,SID315475376,0.42,enough cells in well
Serpina5,SID315480786,0.05,enough cells in well
Itsn2,SID315469213,-0.31,enough cells in well
Rbm5,SID315475830,-0.46,enough cells in well
Zc3h11a,SID315474089,-0.42,enough cells in well
Morf4l1,SID315469669,0.32,enough cells in well
Nr1i3,SID315465763,-0.38,enough cells in well
Mrpl4,SID315472256,-0.5,enough cells in well
Vmn1r212,SID315477350,0.07,enough cells in well
Il24,SID315475912,-1.08,enough cells in well
Chm,SID315465962,-0.17,enough cells in well
Defb2,SID315466300,1.37,enough cells in well
Radx,SID315476352,1.87,enough cells in well
Prox2,SID315474726,0.67,enough cells in well
Mettl9,SID315471982,3.95 (active),enough cells in well
Acrbp,SID315471156,-0.48,enough cells in well
Slc25a37,SID315473184,1.51,enough cells in well
Wfdc18,SID315466588,2.34,enough cells in well
Sufu,SID315470312,-1.72 (active),enough cells in well
1700013G24Rik,SID315473796,-0.49,enough cells in well
D830039M14Rik,SID315481422,3.95 (active),enough cells in well
9330119M13Rik,SID315481201,-0.44,enough cells in well

The list goes on, starting with the last 4 of the part before.
target,PubChem SID,Tnf reporter robust z-score,fewer than 50 cells in well
Sufu,SID315470312,-1.72 (active),enough cells in well
1700013G24Rik,SID315473796,-0.49,enough cells in well
D830039M14Rik,SID315481422,3.95 (active),enough cells in well
9330119M13Rik,SID315481201,-0.44,enough cells in well
Trim7,SID315476031,4.07 (active),enough cells in well
Dnajc24,SID315476174,1.08,enough cells in well
Zfp385b,SID315479570,-0.92,enough cells in well
Dnase1l1,SID315473822,,fewer than 50 cells per well; well left out of calls
Kcnj8,SID315467587,0.13,enough cells in well
Klhl5,SID315474321,-0.07,enough cells in well
Srxn1,SID315475356,0.12,enough cells in well
Or56b1,SID315480002,0.73,enough cells in well
E330037G11Rik,SID315476322,0.5,enough cells in well
Ccr9,SID315466013,0.09,enough cells in well
Sfxn2,SID315476078,-0.57,enough cells in well
Exoc2,SID315472469,-0.6,enough cells in well
Reg3g,SID315468938,1.63,enough cells in well
Cyb561,SID315466207,1.53,enough cells in well
Trim41,SID315477666,-0.62,enough cells in well
Rapgef1,SID315476636,-0.68,enough cells in well
Ifih1,SID315474257,0.89,enough cells in well
Il17rd,SID315477362,,fewer than 50 cells per well; well left out of calls
Il17rd,SID315477363,-1.94 (active),enough cells in well
Pkp2,SID315473032,-1.62 (active),enough cells in well
Pgam1,SID315468484,0.73,enough cells in well
6030443O07RIK,SID315482019,0.53,enough cells in well
Ralb,SID315472071,-0.87,enough cells in well
5730405M06RIK,SID315482015,0.12,enough cells in well
Aldh18a1,SID315471548,-0.19,enough cells in well
Prss34,SID315481493,1.37,enough cells in well
Apoc1,SID315465468,-0.26,enough cells in well
Rab31,SID315476549,,fewer than 50 cells per well; well left out of calls
Or5ac25,SID315480067,-0.32,enough cells in well
Or5ac25,SID315481928,-0.35,enough cells in well
Fat1,SID315466629,0,enough cells in well
Sntg1,SID315474185,,fewer than 50 cells per well; well left out of calls
4933404G15Rik,SID315474832,,fewer than 50 cells per well; well left out of calls
Hnf1a,SID315469607,-0.25,enough cells in well
Etv4,SID315468460,-0.17,enough cells in well
